Experimental data reported in the supplement of paper PMC12067093, “Discovery and optimisation of a covalent ligand for TRIM25 and its application to targeted protein ubiquitination” (Chemical Science, 2025).
This is one part of the list.
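Further: competitive chemoproteomic profiling in live THP-1 cells with an iodoacetamide desthiobiotin (IA-DTB) probe, comparing probe-labelled peptide intensities in compound-treated cells against DMSO-treated controls.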

By UniProt entry, the sequences of proteins in these tests, tags left out. Where a name states a change or a piece, a line headed by the entry shows the natural chain unless it says otherwise.
UniProt Q9H777: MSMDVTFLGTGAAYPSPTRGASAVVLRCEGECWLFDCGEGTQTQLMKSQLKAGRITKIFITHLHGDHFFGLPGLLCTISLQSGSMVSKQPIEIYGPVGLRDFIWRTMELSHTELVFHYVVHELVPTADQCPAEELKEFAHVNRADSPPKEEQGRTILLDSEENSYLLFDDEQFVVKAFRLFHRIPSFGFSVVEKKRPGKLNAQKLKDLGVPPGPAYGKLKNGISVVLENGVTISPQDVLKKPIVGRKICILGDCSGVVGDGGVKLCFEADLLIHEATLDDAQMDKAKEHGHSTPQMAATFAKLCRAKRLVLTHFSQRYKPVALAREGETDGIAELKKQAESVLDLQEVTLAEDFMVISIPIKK
UniProt Q9UHY7: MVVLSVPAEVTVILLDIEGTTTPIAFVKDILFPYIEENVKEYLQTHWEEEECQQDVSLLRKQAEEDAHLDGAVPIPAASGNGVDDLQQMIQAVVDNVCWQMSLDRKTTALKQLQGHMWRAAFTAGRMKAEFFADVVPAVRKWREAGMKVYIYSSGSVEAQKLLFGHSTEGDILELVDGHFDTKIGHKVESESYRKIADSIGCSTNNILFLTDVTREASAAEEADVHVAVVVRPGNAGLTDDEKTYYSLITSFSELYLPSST
UniProt Q9Y6I3: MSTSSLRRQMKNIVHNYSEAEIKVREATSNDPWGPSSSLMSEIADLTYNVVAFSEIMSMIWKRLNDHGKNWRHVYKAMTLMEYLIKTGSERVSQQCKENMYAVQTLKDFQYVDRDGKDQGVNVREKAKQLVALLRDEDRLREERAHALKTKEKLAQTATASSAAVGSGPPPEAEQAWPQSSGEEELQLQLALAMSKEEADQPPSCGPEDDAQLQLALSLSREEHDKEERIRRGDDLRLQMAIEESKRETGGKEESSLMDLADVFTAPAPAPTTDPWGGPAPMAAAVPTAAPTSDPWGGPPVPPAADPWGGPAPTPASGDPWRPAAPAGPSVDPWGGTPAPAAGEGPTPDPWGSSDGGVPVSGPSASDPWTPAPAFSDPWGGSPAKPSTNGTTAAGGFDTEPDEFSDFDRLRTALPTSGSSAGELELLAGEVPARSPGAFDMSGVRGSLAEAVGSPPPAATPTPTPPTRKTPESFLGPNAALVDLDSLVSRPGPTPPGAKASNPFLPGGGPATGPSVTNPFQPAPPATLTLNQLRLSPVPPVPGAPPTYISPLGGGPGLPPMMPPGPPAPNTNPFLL
UniProt Q15723: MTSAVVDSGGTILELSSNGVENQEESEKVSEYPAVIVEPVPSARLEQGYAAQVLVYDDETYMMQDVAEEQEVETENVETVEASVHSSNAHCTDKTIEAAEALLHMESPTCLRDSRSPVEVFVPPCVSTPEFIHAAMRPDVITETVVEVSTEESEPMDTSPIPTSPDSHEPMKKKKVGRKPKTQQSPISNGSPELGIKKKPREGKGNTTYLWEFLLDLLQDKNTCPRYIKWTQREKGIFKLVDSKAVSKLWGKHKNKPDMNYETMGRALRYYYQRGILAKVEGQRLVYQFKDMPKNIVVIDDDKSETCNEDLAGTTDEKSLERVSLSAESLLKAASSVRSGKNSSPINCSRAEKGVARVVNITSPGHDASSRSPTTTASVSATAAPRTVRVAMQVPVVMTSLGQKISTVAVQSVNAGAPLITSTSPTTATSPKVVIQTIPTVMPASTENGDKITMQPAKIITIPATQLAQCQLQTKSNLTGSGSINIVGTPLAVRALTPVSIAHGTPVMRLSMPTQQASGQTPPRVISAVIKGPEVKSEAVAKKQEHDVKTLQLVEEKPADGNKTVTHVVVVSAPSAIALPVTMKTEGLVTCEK
UniProt P78344: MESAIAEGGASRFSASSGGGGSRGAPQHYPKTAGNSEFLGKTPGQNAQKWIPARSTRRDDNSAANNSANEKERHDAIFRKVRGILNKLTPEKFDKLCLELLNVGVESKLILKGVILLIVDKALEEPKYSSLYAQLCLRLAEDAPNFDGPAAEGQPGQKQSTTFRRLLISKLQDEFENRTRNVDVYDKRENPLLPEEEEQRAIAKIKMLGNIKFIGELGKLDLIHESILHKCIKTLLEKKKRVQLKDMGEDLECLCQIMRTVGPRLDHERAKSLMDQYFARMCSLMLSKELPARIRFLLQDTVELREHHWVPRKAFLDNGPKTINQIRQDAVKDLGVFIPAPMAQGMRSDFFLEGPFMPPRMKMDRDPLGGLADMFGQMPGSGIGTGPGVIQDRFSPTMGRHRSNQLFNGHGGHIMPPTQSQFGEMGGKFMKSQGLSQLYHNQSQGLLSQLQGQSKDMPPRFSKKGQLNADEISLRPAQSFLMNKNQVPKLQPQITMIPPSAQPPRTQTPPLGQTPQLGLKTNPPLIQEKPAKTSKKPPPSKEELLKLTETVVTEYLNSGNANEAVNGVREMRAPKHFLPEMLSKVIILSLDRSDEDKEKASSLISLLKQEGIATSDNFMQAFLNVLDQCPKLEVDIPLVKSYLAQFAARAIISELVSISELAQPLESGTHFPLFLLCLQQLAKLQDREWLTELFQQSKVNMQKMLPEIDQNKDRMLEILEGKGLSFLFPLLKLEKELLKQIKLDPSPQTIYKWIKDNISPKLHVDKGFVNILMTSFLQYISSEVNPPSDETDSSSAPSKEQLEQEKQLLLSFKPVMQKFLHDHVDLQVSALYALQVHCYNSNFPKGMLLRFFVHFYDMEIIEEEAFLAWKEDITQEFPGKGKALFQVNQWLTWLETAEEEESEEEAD
UniProt O43402: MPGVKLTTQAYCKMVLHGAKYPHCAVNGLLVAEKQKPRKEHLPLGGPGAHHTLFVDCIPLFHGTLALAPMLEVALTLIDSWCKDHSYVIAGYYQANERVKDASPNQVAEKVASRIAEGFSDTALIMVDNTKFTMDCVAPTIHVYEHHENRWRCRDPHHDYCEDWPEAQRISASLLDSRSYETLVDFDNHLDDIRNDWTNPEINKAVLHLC
UniProt P07814: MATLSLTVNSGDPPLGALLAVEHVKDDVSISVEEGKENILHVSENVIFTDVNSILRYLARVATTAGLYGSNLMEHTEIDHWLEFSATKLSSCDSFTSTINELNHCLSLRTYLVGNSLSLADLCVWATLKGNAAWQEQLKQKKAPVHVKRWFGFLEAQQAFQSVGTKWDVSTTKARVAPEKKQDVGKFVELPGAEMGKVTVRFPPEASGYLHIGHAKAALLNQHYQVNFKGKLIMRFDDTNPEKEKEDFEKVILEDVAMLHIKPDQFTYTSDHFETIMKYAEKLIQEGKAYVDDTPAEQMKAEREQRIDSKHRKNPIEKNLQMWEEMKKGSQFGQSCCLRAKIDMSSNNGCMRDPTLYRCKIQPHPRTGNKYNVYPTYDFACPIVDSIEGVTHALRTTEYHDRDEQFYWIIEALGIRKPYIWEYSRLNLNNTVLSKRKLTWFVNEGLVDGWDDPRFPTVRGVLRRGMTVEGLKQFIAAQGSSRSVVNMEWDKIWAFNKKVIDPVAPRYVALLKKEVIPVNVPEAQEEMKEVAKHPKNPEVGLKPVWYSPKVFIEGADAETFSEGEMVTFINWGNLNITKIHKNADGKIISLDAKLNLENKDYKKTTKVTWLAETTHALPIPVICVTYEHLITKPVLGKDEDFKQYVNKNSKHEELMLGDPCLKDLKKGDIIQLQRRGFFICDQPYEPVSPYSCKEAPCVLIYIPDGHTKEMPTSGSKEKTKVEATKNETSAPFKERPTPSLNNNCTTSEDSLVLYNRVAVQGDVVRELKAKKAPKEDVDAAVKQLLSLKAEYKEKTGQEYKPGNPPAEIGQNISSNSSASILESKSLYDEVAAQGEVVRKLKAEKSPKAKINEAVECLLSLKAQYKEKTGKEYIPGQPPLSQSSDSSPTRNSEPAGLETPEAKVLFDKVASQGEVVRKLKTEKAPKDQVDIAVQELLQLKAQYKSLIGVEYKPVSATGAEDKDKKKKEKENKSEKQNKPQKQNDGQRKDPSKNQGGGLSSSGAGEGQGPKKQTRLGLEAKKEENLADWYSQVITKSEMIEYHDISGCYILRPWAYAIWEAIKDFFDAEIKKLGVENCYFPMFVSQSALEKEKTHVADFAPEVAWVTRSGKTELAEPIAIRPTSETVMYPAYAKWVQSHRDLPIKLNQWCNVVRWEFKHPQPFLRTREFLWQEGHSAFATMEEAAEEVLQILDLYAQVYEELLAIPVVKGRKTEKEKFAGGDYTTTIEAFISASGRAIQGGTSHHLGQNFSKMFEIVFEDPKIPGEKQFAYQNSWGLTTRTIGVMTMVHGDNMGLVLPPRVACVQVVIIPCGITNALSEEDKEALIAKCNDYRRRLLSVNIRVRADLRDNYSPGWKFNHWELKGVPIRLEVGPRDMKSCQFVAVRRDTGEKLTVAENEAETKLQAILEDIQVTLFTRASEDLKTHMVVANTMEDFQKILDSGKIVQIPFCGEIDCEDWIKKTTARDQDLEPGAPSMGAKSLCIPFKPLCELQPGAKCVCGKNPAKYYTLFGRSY
UniProt Q9BQ52: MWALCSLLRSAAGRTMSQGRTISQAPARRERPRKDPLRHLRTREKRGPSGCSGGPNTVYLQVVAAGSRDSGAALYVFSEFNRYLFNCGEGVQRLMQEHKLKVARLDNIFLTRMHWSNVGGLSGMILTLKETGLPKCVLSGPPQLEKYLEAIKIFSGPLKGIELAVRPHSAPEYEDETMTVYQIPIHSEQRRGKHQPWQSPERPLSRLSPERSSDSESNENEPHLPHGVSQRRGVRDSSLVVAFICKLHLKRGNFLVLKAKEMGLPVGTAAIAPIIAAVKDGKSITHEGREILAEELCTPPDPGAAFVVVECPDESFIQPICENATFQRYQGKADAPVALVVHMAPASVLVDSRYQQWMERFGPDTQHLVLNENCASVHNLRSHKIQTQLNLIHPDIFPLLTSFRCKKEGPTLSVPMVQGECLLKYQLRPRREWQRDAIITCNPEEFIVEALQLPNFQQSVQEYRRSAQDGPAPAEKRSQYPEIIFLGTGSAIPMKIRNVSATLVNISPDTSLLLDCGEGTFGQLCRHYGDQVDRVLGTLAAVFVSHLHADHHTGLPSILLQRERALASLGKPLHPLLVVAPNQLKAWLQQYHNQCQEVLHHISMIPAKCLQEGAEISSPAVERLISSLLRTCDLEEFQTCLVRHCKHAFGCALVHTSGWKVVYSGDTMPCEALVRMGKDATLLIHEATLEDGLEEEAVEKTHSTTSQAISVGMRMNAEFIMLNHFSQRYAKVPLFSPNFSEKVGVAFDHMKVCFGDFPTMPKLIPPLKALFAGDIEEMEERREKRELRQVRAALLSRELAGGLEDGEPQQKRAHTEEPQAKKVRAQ
UniProt P08246: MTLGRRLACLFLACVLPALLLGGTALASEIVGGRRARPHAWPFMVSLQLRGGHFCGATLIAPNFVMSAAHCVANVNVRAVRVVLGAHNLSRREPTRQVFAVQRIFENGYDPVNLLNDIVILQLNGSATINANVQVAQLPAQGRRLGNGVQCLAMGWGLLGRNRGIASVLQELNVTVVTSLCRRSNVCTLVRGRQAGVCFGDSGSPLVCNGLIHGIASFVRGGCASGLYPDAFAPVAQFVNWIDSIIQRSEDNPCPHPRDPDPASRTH
UniProt P06733, whole entry, looked up: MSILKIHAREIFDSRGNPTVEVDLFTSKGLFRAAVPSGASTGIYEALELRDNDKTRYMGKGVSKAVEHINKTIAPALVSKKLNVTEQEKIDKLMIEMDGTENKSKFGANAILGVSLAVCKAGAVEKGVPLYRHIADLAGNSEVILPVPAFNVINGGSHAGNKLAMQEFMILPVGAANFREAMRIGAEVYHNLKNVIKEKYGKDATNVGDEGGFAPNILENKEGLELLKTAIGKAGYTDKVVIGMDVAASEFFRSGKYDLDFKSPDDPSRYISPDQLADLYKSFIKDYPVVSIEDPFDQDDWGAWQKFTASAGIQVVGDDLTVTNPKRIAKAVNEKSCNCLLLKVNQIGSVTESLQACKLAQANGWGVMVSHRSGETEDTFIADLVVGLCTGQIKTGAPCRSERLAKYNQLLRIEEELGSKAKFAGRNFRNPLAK
UniProt Q9UBQ5, whole entry, looked up: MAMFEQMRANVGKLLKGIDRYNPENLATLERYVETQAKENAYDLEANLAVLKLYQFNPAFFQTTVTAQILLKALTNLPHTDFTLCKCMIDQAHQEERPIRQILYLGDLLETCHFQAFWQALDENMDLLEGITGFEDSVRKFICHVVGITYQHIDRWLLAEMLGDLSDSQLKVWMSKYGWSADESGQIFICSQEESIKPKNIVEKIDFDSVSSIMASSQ

These targets were tested with CC1Cc2ccccc2N1C(=O)C1CCCN(C1)C(=O)CCl (mixture of isomers) [TRIM25 ligand 11 (diastereomer mixture)] (assay: probe-labelled cysteine peptide fold change vs DMSO (competition) (log2 fold change); higher = less target engagement (more negative = stronger competition)). Settings: 10 µM; THP-1; incubation time: 4 h.
With “ELAC1_Q9H777_266_LCFEADLLIHEATLDDAQMDK (UniProt Q9H777)” the “probe-labelled cysteine peptide fold change” value was -0.0858. For “ENOPH1_Q9UHY7_202_IADSIGCSTNNILFLTDVTR (UniProt Q9UHY7)”, the “probe-labelled cysteine peptide fold change” value was 0.266. In the case of “EIF4H_Q15056_85_GFCYVEFDEVDSLK (UniProt Q15056)”, the “probe-labelled cysteine peptide fold change” value is reported as -0.0539. For “EPN1_Q9Y6I3_205_EEADQPPSCGPEDDAQLQLALSLSR (UniProt Q9Y6I3)”, the “probe-labelled cysteine peptide fold change” value was 0.47. With “EIF4G1_Q04637_1487_ALMTAVCYSAIIFETPLR (UniProt Q04637)” the “probe-labelled cysteine peptide fold change” value was 0.145. In the case of “ELF2_Q15723_591_TEGLVTCEK (UniProt Q15723)”, the “probe-labelled cysteine peptide fold change” value is reported as -0.0654. In the case of “EIF3I_Q13347_76_HVLTGSADNSCR (UniProt Q13347)”, the “probe-labelled cysteine peptide fold change” value is reported as -0.0321. With “EIF4G2_P78344_97_LCLELLNVGVESK (UniProt P78344)” the “probe-labelled cysteine peptide fold change” value was -0.155. With “EMC8_O43402_153_CRDPHHDYCEDWPEAQR (UniProt O43402)” the “probe-labelled cysteine peptide fold change” value was 0.307. For “EPRS_P07814_123_TYLVGNSLSLADLCVWATLK (UniProt P07814)”, the “probe-labelled cysteine peptide fold change” value was -0.0118. With “ELAC2_Q9BQ52_374_FGPDTQHLVLNENCASVHNLR (UniProt Q9BQ52)” the “probe-labelled cysteine peptide fold change” value was 0.292. In the case of “ELANE_P08246_208_QAGVCFGDSGSPLVCNGLIHGIASFVR (UniProt P08246)”, the “probe-labelled cysteine peptide fold change” value is reported as 0.19. For “ERAP1_Q9NZ08_907_CVQQTIETIEENIGWMDK (UniProt Q9NZ08)”, the “probe-labelled cysteine peptide fold change” value was -0.0372. In the case of “ELP2_Q6IA86_572_LYGHGYEIFCVTCNSSK (UniProt Q6IA86)”, the “probe-labelled cysteine peptide fold change” value is reported as 0.0517. In the case of “ENO1_P06733_339_SCNCLLLK (UniProt P06733)”, the “probe-labelled cysteine peptide fold change” value is reported as 0.00409. For “EIF3K_Q9UBQ5_87_CMIDQAHQEERPIR (UniProt Q9UBQ5)”, the “probe-labelled cysteine peptide fold change” value was 0.0313.
